Data: patent publication EP4843990A1, “AMINO HETEROARYL MACROCYCLIC COMPOUNDS AS WELL AS PREPARATION METHOD THEREFOR AND USE THEREOF” (dated 2026)
The match of structure and compound is tentative.

Sequences of proteins named here, by UniProt entry; tags and fusion partners are left off.
UniProt P08183, whole entry: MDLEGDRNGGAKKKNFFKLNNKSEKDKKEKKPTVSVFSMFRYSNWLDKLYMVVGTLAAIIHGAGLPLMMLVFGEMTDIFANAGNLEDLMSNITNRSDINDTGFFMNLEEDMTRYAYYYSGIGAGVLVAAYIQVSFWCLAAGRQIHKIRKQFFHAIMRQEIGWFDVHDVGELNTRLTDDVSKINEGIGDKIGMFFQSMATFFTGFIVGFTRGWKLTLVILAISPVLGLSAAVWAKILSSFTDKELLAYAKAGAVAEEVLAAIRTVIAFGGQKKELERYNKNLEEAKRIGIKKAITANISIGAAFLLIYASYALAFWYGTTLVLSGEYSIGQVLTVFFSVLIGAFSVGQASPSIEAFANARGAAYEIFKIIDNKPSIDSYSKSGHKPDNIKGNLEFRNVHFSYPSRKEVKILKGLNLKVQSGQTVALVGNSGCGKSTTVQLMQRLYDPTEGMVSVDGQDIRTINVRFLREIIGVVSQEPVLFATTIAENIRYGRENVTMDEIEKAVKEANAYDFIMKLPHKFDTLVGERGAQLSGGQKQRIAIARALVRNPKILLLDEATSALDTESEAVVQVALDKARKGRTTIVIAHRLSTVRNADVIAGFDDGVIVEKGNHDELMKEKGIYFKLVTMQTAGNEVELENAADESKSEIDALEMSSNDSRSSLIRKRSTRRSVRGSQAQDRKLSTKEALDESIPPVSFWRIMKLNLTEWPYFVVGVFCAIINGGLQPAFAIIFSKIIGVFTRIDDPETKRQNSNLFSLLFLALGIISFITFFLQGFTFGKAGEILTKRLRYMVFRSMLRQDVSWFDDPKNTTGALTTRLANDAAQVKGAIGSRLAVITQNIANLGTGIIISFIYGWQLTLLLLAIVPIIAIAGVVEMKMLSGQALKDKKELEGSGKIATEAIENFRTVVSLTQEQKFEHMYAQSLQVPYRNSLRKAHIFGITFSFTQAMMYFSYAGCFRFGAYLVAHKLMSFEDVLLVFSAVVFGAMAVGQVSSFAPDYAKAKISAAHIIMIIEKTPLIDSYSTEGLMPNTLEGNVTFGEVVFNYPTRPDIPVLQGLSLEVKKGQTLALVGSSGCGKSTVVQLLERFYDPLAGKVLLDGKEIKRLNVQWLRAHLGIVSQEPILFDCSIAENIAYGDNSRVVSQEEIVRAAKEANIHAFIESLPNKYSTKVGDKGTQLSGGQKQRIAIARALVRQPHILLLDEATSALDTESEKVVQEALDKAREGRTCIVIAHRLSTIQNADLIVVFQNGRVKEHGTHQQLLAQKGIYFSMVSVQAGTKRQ

Tests used:
NCI-H1975 = assay: CellTiter-Glo cell proliferation inhibition assay; conditions: read-out: Antiproliferative activity (IC50 (nM)) NCI-H1975; NCI-H1975 cells; 72 hours; CTG
A431 = assay: CellTiter-Glo cell proliferation inhibition assay; conditions: read-out: Antiproliferative activity (IC50 (nM)) A431; A431 cells; 72 hours; CTG
Ba/F3 (EGFR-L858R/C797S) = assay: CellTiter-Glo cell proliferation inhibition assay; conditions: read-out: Antiproliferative activity (IC50 (nM)) Ba/F3 EGFR LR/CS; Ba/F3 (EGFR-L858R/C797S) cells; 72 hours; CTG
PC9 = assay: CellTiter-Glo cell proliferation inhibition assay; conditions: read-out: Antiproliferative activity (IC50 (nM)) PC9; PC9 cells; 72 hours; CTG
[1] = test system: Ba/F3 (EGFR-L858R/T790M/C797S); assay: CellTiter-Glo cell proliferation inhibition assay; conditions: read-out: Antiproliferative activity (IC50 (nM)) Ba/F3 EGFR LR/TM/CS; Ba/F3 (EGFR-L858R/T790M/C797S) cells; 72 hours; CTG
Ba/F3 EGFR wt+EGF = assay: CellTiter-Glo cell proliferation inhibition assay; conditions: read-out: Antiproliferative activity (IC50 (nM)) Ba/F3 EGFR wt+EGF; Ba/F3 EGFR wt cells with EGF stimulation; 72 hours; CTG
P-gp = P-gp (Homo sapiens, UniProt P08183); assay: P-gp substrate evaluation assay (MDCKII-MDR1 Transwell permeability); conditions: MDCKII-MDR1 cells; Papp basolateral to apical / apical to basolateral; 2 hours; pH 7.4
[2] = Cassette pharmacokinetic study in mice; conditions: ICR mice; PO; cassette dosing; 15 mg/kg

IC50 (NCI-H1975): 1.5 nM | IC50 (A431): 196 nM | IC50 (Ba/F3 (EGFR-L858R/C797S)): 0.5 nM | IC50 (PC9): 0.7 nM | IC50 [1]: 1.7 nM | IC50 (Ba/F3 EGFR wt+EGF): 20 nM | ER (Efflux Ratio) (P-gp): 0.4 | Area Under the Curve AUC0-24h [2]: 10199 ng·h/mL | Half-life T1/2 [2]: 4.0 h | Maximum Concentration Cmax [2]: 1413 ng/mL
SMILES: CC1CCOc2c(cnn2C)-c2nccc(n2)Nc2cc3c1ccc(N1C[C@H](N(C)S(C)(=O)=O)[C@H]1C)c3cn2 (stereo partly shown)
